Results on six molecules are retold here after patent publication US20260132197A1.

Protein sequences, listed by entry. Tags and fused reporters are not part of them. Residues count along the entry.
UniProt Q08722, residues 19-323: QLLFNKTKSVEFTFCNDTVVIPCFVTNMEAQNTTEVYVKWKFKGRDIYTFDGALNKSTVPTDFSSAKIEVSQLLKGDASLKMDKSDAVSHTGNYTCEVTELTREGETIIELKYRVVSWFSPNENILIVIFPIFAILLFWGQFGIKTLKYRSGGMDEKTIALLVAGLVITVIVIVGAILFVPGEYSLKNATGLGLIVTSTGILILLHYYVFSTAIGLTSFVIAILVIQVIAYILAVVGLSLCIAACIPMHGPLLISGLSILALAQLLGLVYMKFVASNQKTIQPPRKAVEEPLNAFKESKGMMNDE

Changes are numbered by the printed parent chain. These are yes or no findings as the source states them, for the method shown. Some entries that bind do so weakly or less than the wild type.

The target of experiment [1] is cynomolgus CD47 on CHO-K1 stable cell line (cynomolgus). Kind of experiment: flow cytometry on CHO-K1 cells over-expressing cynomolgus CD47, Alexa Fluor 647 goat anti-human IgG secondary antibody, MFI. In general terms: Flow cytometry measures light scatter and fluorescence of single cells or particles in a stream.
Experiment [2] addresses human CD47 on cells (SHP-77 tumor cells, human red blood cells, CCRF-CEM cells, human CD47 CHO-K1 stable cell line) (human) (UniProt Q08722). Kind of experiment: flow cytometry on human red blood cells, Alexa Fluor 647 goat anti-human IgG secondary antibody, geometric MFI [Continued) k].
Experiment [3] concerns the target cynomolgus CD47 on CHO-K1 stable cell line (cynomolgus). Kind of experiment: flow cytometry on CHO-K1 cells over-expressing cynomolgus CD47, Alexa Fluor 647 goat anti-human IgG secondary antibody, MFI [Continued) g].
Experiment [4] deals with human CD47 on cells (SHP-77 tumor cells, human red blood cells, CCRF-CEM cells, human CD47 CHO-K1 stable cell line) (human) (UniProt Q08722). Kind of experiment: flow cytometry on SHP-77 tumor cells, Alexa Fluor 647 goat anti-human IgG secondary antibody, geometric MFI [Continued) k].
The target is the same in experiment [5]. Kind of experiment: flow cytometry on CHO-K1 cells over-expressing human CD47, Alexa Fluor 647 goat anti-human IgG secondary antibody, MFI [Continued) g].
The target is the same in experiment [6]. Briefly: flow cytometry on SHP-77 tumor cells, Alexa Fluor 647 goat anti-human IgG secondary antibody, geometric MFI [Continued) n].
The target is the same in experiment [7]. Briefly: flow cytometry on human red blood cells, Alexa Fluor 647 goat anti-human IgG secondary antibody, geometric MFI [Continued) n].
Experiment [8] has the same target. Kind of experiment: flow cytometry on CHO-K1 cells over-expressing human CD47, Alexa Fluor 647 goat anti-human IgG secondary antibody, MFI [Continued) h].
In experiment [9] the target is cynomolgus CD47 on CHO-K1 stable cell line (cynomolgus). Kind of experiment: flow cytometry on CHO-K1 cells over-expressing cynomolgus CD47, Alexa Fluor 647 goat anti-human IgG secondary antibody, MFI [Continued) h].
Experiment [10] concerns the target human CD47 on cells (SHP-77 tumor cells, human red blood cells, CCRF-CEM cells, human CD47 CHO-K1 stable cell line) (human) (UniProt Q08722). Briefly: flow cytometry on human red blood cells, Alexa Fluor 647 goat anti-human IgG secondary antibody, geometric MFI [Continued) l].
The target is the same in experiment [11]. Kind of experiment: flow cytometry on SHP-77 tumor cells, Alexa Fluor 647 goat anti-human IgG secondary antibody, geometric MFI [Continued) l].
In experiment [12] the target is cynomolgus CD47 on CHO-K1 stable cell line (cynomolgus). Kind of experiment: flow cytometry on CHO-K1 cells over-expressing cynomolgus CD47, Alexa Fluor 647 goat anti-human IgG secondary antibody, MFI [Continued) i].
Experiment [13] has as its target human CD47 on cells (SHP-77 tumor cells, human red blood cells, CCRF-CEM cells, human CD47 CHO-K1 stable cell line) (human) (UniProt Q08722). Kind of experiment: flow cytometry on SHP-77 tumor cells, Alexa Fluor 647 goat anti-human IgG secondary antibody, geometric MFI [Continued) o].
Experiment [14] shares this target. Kind of experiment: flow cytometry on CHO-K1 cells over-expressing human CD47, Alexa Fluor 647 goat anti-human IgG secondary antibody, MFI [Continued) i].
For experiment [15] the target is unchanged. Briefly: flow cytometry on human red blood cells, Alexa Fluor 647 goat anti-human IgG secondary antibody, geometric MFI [Continued) o].
Experiment [16] has the same target. Kind of experiment: flow cytometry on human red blood cells, Alexa Fluor 647 goat anti-human IgG secondary antibody, geometric MFI [Continued) m].
Experiment [17] has the same target. Kind of experiment: flow cytometry on SHP-77 tumor cells, Alexa Fluor 647 goat anti-human IgG secondary antibody, geometric MFI [Continued) m].

B1: 108VH4.M4-VL1.M1 (antibody, V domains shown)
VH: EVQLVQSGAEVKKPGSSVKVSCKASGYSFTHHWIHWVRQAPGQGLEWMGMIDASDSETRLSQKFKDRVTITADKSTSTAYMELSSLRSEDTAVYYCARLGRYYFDYWGQGTTVTVSS
VL: EIVLTQSPATLSLSPGERATLSCRASENVGTYISWYQQKPGQAPRLLIYGASNRYTGIPARFSGSGSGTDFTLTISSLEPEDFAVYYCGESYGHLYTFGGGTKVEIK
With B1, the binding result in experiment [1] is listed as “binds”.

B2: 108VH10.Mk / 108VL10.Me (antibody, V domains shown)
VH: EVQLVESGGGLVQPGGSLRLSCAASGFTFSHHWIHWVRQAPGKGLEWVAMIDASDSETRLSQKVKDRFTISADTSKNTAYLQMNSLRAEDTAVYYCSRLGRYYFDYWGQGTLVTVSS
VL: DIQMTQSPSSLSASVGDRVTITCRASQSISSYLNWYQQKPGKAPKLLIYGASSRYSGVPSRFSGSRSGTDFTLTISSLQPEDFATYYCGESYGHLYTFGQGTKVEIK
With B2, the binding entry in [2], in [3], in experiment [4] and in [5] was “binds” in each case.

B3: 108VH10.Mq / 108VL10.Me (antibody, V domains shown)
VH: B2 VH with Q62D, K63S, D66G
VL: B2 VL
As to B3, the binding result in [6], in experiment [7], in [8] and in [9] was “binds” each time.

B4: 108VH10.Mo / 108VL10.Me (antibody, V domains shown)
VH: B2 VH with Q62D, K63S, V64F, D66G
VL: B2 VL
With B4, the binding entry in [10] and in [11] was “binds” each time.

B5: 108VH10.Mr / 108VL10.Me (antibody, V domains shown)
VH: B2 VH with S61V, Q62D, K63S, D66G
VL: B2 VL
In the case of B5, the binding entry in experiment [12], in [13], in experiment [14] and in experiment [15] was “binds” in each case.

B6: 108VH10.Mp / 108VL10.Me (antibody, V domains shown)
VH: B2 VH with S61V, Q62D, K63S, V64F, D66G
VL: B2 VL
In the case of B6, the binding entry in experiment [16] and in experiment [17] was “binds” in each case.
